* marks the point of attachment. Fmoc = O=C(OCC1c2ccccc2-c2ccccc21)*
How the values were obtained:
[1] = Boc solid-phase peptide synthesis; Boc-Leu-PAM resin; DCC and HOBT; conditions: whole synthesis, scale 0.5 mmol
[2] = Boc solid-phase peptide synthesis; MBHA resin; DCC and HOBT; conditions: whole synthesis, scale 0.5 mmol

Ac-K(Fmoc)YQSSSL-OH
crude mass [1]: 0.46 g

NH2 -Leu-Asn-Lys(Fmoc)-Ala-Ser-Tyr-Gln-Ser-Ser-Ser-Leu-Amide
crude mass [2]: 750 mg
